Measured values published in paper PMC5998080, “Structural and functional analysis of mRNA export regulation by the nuclear pore complex” (Nature Communications, 2018).
Construct, isoform or probe ends are uncertain for at least one entry. A weaker result is weaker than the reference pair of the same experiment. Protein sequences can lack the tags named with them. At least one verdict was read from the data and is not stated in words by the source.

Target: T1, DDX19 (wild type) (Homo sapiens) (UniProt Q9UMR2)
T1 sequence (looked up, limits assumed): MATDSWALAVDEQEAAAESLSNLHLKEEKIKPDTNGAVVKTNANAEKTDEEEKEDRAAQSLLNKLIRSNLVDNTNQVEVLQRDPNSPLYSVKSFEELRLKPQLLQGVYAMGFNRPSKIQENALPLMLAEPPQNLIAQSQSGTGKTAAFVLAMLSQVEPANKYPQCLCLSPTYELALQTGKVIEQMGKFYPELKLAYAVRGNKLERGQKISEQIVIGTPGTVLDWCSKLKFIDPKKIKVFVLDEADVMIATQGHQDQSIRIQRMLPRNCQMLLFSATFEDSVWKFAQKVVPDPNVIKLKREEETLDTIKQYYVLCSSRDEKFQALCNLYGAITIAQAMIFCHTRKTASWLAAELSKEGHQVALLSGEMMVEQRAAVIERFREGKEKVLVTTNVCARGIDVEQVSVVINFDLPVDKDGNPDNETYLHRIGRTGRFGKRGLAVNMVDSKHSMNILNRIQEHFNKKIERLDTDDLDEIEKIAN
Test: EMSA
Conditions: 1 mM AMP-PNP, 2 mM MgCl2, 20 mM TRIS pH 8.0, 100 mM NaCl, 2 mM MgCl2, 1 mM DTT, 10% glycerol, 25 ng RNA in 10 ul, 20 min on ice, 1.4% native agarose gel, 0.25x TBE, room temperature, recombinant protein, protein details: His6 removed by PreScission protease, label: none (SYBR gold stain)

Sequence: GUUUUUUUUUUUUUUUUUUUUCUCGAUCCGUAGUGAUCUACUGAGCAUCUCCC [53-nt ssRNA probe]
- binding result (+ 2 uM Nup214NTD: binding inhibited): binds more weakly
- binding result (DDX19 1 uM alone): binds
